The other results are listed elsewhere or left out.
target: T1, OsSMF1 (Oryza sativa, UniProt Q6ZLB0 1-436); experiment: protein-binding microarray (RPBM); PBS, 2% BSA, 51.3 ng/ul salmon testes DNA, 50 uM zinc acetate, 200 nM TF, 25 C, 1 h; high values mean tight binding; conditions: protein: recombinant; tags: N-terminal polyhistidine and DsRed monomer fusion (pET32a); chain copies: 2; label: CyDye5-dUTP incorporated in the synthesized complementary strand; 3' TTTTT single-stranded linker to array surface; dsDNA, one strand shown
T1 sequence: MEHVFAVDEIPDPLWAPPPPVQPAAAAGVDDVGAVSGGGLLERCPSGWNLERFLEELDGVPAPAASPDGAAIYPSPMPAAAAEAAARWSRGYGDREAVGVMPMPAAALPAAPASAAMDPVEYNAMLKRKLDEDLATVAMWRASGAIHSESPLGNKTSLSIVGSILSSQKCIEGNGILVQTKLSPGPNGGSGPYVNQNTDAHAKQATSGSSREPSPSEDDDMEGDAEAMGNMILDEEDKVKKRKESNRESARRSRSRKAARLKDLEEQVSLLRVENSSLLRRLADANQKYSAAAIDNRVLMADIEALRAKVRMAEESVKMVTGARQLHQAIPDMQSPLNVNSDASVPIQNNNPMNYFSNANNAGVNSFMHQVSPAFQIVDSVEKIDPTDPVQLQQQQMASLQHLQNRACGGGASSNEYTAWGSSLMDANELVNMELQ
Summary of the method: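 The binding signal for each feature is its fluorescence intensity in arbitrary units. An Axon 4000B scanner was used to read a custom Agilent array that had been made double-stranded with Cy5-dUTP primer extension, blocked with 2% BSA, incubated at 25 °C for 1 h with 200 nM protein in PBS, 2% BSA, salmon testes DNA and 50 µM zinc acetate, and washed. The protein was an N-terminal polyhistidine–DsRed transcription factor fusion from E. coli BL21-CodonPlus, purified on Ni–NTA.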

Row | Sequence | binding signal
1 | CCCGTGCTTCTGCAGTACAGCCACGCCGATCCCAACAGGACGGAGTCACCTAGTGCAG | 3220 fluorescence intensity (a.u.)
2 | CGCAGCATCACGGCCTCCTCTCCCAACGTTCACTTGCGATCGGAGTCACCTAGTGCAG | 3340 fluorescence intensity (a.u.)
3 | TAGTTACATCGTAGCGTTCTCTTCCAGTACTCATGGCCAACGGAGTCACCTAGTGCAG | 3280 fluorescence intensity (a.u.)
4 | AAAGAATCAGCCACCTCACATGATACTATTATGATATGGTCGGAGTCACCTAGTGCAG | 4260 fluorescence intensity (a.u.)
5 | TGTGCGCGCGTCACGGTTTCCTTCCACGTCTCGTCGCTTCCGGAGTCACCTAGTGCAG | 6100 fluorescence intensity (a.u.)
6 | CGTCGTCTCTGTCAAACAACAGACATGGTCCACCCAAGAGCGGAGTCACCTAGTGCAG | 5380 fluorescence intensity (a.u.)
7 | ATACAAGACAAATCGATTAACATAAGATCGATATATCGCTCGGAGTCACCTAGTGCAG | 24700 fluorescence intensity (a.u.)
8 | GCGTGGCGCCACGTGACGCCCGGCGCGCGCGCGCGTCCGGCGGAGTCACCTAGTGCAG | 16200 fluorescence intensity (a.u.)
9 | CACATAACGCACAGACTCAGCCATGTAATGTACTCTACACCGGAGTCACCTAGTGCAG | 3570 fluorescence intensity (a.u.)
10 | TGATGGTGGAACAGTGACTGGATTCATCTACAGAAAGAAACGGAGTCACCTAGTGCAG | 4870 fluorescence intensity (a.u.)
11 | AGGGTGCAGGAAAAGGATGCGGGCCGCCACGTGTCCCGCCCGGAGTCACCTAGTGCAG | 16800 fluorescence intensity (a.u.)
12 | ACTCAGTCTGTACTACCTGTACGTACGTGGCCGCCGCTAGCGGAGTCACCTAGTGCAG | 7360 fluorescence intensity (a.u.)
13 | ACCAGTCCACTCCACAGTCTCCCACAGCGCCACCACGGTGCGGAGTCACCTAGTGCAG | 3750 fluorescence intensity (a.u.)
14 | AGAGGGTGATTAAATCATGTCTTGTCATTGCTAATCCAAGCGGAGTCACCTAGTGCAG | 3760 fluorescence intensity (a.u.)
15 | AAAGTCTCTTAATCCTGTGCAGAATGAGTGTGTCCACAAGCGGAGTCACCTAGTGCAG | 3790 fluorescence intensity (a.u.)
16 | ACCTAGATTCTTATATTCTAAGAATCTGTAGTTATATAATCGGAGTCACCTAGTGCAG | 27200 fluorescence intensity (a.u.)
17 | GTAATATATTTCCACGTGCACTCTGTTGCATTGAAATCGCCGGAGTCACCTAGTGCAG | 5110 fluorescence intensity (a.u.)
18 | TCAGCCGTTGATGTCATGATCGGACGGCTGAGATCGTCTCCGGAGTCACCTAGTGCAG | 3290 fluorescence intensity (a.u.)
19 | AACGTTGGTATAGTTGTGTGTCAATGATGTGTTGTGTTTGCGGAGTCACCTAGTGCAG | 3450 fluorescence intensity (a.u.)
20 | CCCCGAGAACCCACCGCGAGGCATTCTCCTCCTCCAATCCCGGAGTCACCTAGTGCAG | 17600 fluorescence intensity (a.u.)
21 | TTGATTATTTGTCTCACTTCCAAGTCAGCATAATGCTTTACGGAGTCACCTAGTGCAG | 4490 fluorescence intensity (a.u.)

A few values from the entries so far:
Under binding signal, GCGTGGCGCCACGTGACGCCCGGCGCGCGCGCGCGTCCGGCGGAGTCACCTAGTGCAG is listed with 16200 fluorescence intensity (a.u.)
Under binding signal, TCAGCCGTTGATGTCATGATCGGACGGCTGAGATCGTCTCCGGAGTCACCTAGTGCAG is listed with 3290 fluorescence intensity (a.u.)

More entries follow.

Row | Sequence | binding signal
22 | ATTCAATGCAACTAGGCATGGCGCTGGCCGCTGGCAGAGTCGGAGTCACCTAGTGCAG | 3290 fluorescence intensity (a.u.)
23 | TGCAACGGTAGCATCGCGTAAAAGAAAGAGAAATCTCCCGCGGAGTCACCTAGTGCAG | 3140 fluorescence intensity (a.u.)
24 | GATTCGCGTCCTCCGTTTGCTTCGCTTCTTCTTCTAGAACCGGAGTCACCTAGTGCAG | 3490 fluorescence intensity (a.u.)
25 | GACCGGCCGTGAGTCGTTGTAACTCTGATACGCTGTAATACGGAGTCACCTAGTGCAG | 3350 fluorescence intensity (a.u.)
26 | GCGCCGGGCCGCCACGGCTCAGTGGCGCGCCACGCGCGCGCGGAGTCACCTAGTGCAG | 4070 fluorescence intensity (a.u.)
27 | TCCCTGGTTACTTGATTAGTCTGTGTGACGTGTAGCGGTTCGGAGTCACCTAGTGCAG | 6860 fluorescence intensity (a.u.)
28 | CAGCCACACGCTCACACGTACTCCCGTGCAGTTGCCAGTTCGGAGTCACCTAGTGCAG | 4380 fluorescence intensity (a.u.)
29 | TATCGCTAACGTTATCCTTACATCCACGAGGGAAATGCCGCGGAGTCACCTAGTGCAG | 31300 fluorescence intensity (a.u.)
30 | TAGGGTTTATGTGCGTGTGTTCATAGGGGTGAGTGCGCGTCGGAGTCACCTAGTGCAG | 4250 fluorescence intensity (a.u.)
31 | CTTCGGCCTTAGCTCCAAATCCGATGTAAATTTACCAAATCGGAGTCACCTAGTGCAG | 61700 fluorescence intensity (a.u.)
32 | TGCGTGCCTACGCTATATTGTAGTCACCATGGTTATATTGCGGAGTCACCTAGTGCAG | 4140 fluorescence intensity (a.u.)
33 | AAAAGACATTAGTCGATCGTACCAGTCTGACTCGAATCGTCGGAGTCACCTAGTGCAG | 3780 fluorescence intensity (a.u.)
34 | TACTCAATCGTGCTATAAGCATATGCACTTGGCACGCATCCGGAGTCACCTAGTGCAG | 3240 fluorescence intensity (a.u.)
35 | GTTAACTATCTCCACAAGCTTATGTAGGCCAGTAACGTGGCGGAGTCACCTAGTGCAG | 4050 fluorescence intensity (a.u.)
36 | TTCATCATCCTCCCTTCATACCATGACACACCATCACCATCGGAGTCACCTAGTGCAG | 3350 fluorescence intensity (a.u.)
37 | AGCCTAATTACGTCATGATTTGACAATGTAATGATACCGTCGGAGTCACCTAGTGCAG | 8210 fluorescence intensity (a.u.)
38 | ACTTAACGAGGAATGCACAACTTCTCAATTGCCCTGTGACCGGAGTCACCTAGTGCAG | 21700 fluorescence intensity (a.u.)
39 | TGGTAGGGAAGCAGGTGGAAGGAGGACAGGAAGGCCCAATCGGAGTCACCTAGTGCAG | 34000 fluorescence intensity (a.u.)
40 | ATTGAGATATACGTGGAATATCAGTATATGCCACTCAATTCGGAGTCACCTAGTGCAG | 3380 fluorescence intensity (a.u.)
41 | TTCCTGTGGGCGCTGTTCCTGGTGGCGATGACGGCGACGTCGGAGTCACCTAGTGCAG | 3310 fluorescence intensity (a.u.)
42 | CTATATTGGATCCGCACCCCGCGTGTCAATGCAAATAGAACGGAGTCACCTAGTGCAG | 3420 fluorescence intensity (a.u.)
